The values that follow come from PubChem BioAssay AID248 (DTP/NCI, 2004).

The list does not hold the whole screen: it is rich in T/C values a quarter to a half above the control, in often repeated tests (any T/C) and in doses without a T/C. Further doses and runs are listed elsewhere. T/C is the treated group as % of the vehicle group. Some entries give survivors of the animals treated and no T/C: the source files T/C as zero there, which appears to mark a toxic dose or a test without result, not a measured value. Some survivor counts are full or nearly so, which does not show that the dose was tolerated: the source hardly ever lists a survival T/C far under the control, and the zero likely stands for such cases as well. Survivors were counted at the toxicity check, usually on the fifth day, unless a day is given; later deaths do not show. Schedule codes are those of the source, read here as Q, the interval in days (D) or hours (H), X, the number of doses. Some entries hold several experiments; the results are listed from low to high. Some schedules carry Z or #; the key to these is not given. For survival time, this PubChem deposit counts one and a half times the control or more as active, and values a quarter to a half above the control carry no call in these data; other NCI protocols may use other cut-offs. Some T/C values carry the count of animals alive at the toxicity check (mostly the fifth day); where none is given, no animal had died by that day.

The test system of this test is L1210 leukemia ip in BDF1 mice, survival T/C. The test can be described thus: NCI In Vivo Anticancer Drug Screen. Data for tumor model L1210 Leukemia (intraperitoneal) in B6D2F1 (BDF1) mice. Conditions: T/C endpoint: mean survival time, higher T/C = longer survival.
[1] abbreviates: dose: 200.0 mg/kg/injection, schedule: Q01DX009 (ip), vehicle: saline.
[2] abbreviates: dose: 400.0 mg/kg/injection, schedule: Q01DX009 (ip), vehicle: saline.
The mark [3] stands for this setting: dose: 100.0 mg/kg/injection, schedule: Q01DX009 (ip), vehicle: other.
Where [4] appears, read: dose: 200.0 mg/kg/injection, schedule: Q04DX003 (ip), vehicle: saline.
[5] abbreviates: dose: 400.0 mg/kg/injection, schedule: Q04DX003 (ip), vehicle: saline.
Where [6] appears, read: dose: 400.0 mg/kg/injection, schedule: Q01DX009 (ip), vehicle: saline with Tween-80.
The mark [7] stands for this setting: dose: 400.0 mg/kg/injection, schedule: Q04DX003 (ip), vehicle: saline with Tween-80.
The mark [8] stands for this setting: dose: 100.0 mg/kg/injection, schedule: Q01DX009 (ip), vehicle: saline with Tween-80.
Where [9] appears, read: dose: 200.0 mg/kg/injection, schedule: Q01DX009 (ip), vehicle: saline with Tween-80.

Consider `Nc1nc(SCc2ccccc2Cl)cc(C(=O)O)n1`, for which the survivor count is 5 of 6 (dose: 25.0 mg/kg/injection, schedule: Q01DX Z (ip), vehicle: methylcellulose (MC)); 0 of 6 (dose: 100.0 mg/kg/injection, schedule: Q01DX Z (ip), vehicle: methylcellulose (MC)); 0 of 6 (dose: 200.0 mg/kg/injection, schedule: Q01DX Z (ip), vehicle: methylcellulose (MC)).
For `COC(=O)C(NC(=O)C(N)CSC(c1ccccc1)(c1ccccc1)c1ccccc1)C(C)C` (stereo not given), the T/C is, setting by setting: (dose: 100.0 mg/kg/injection, schedule: Q01DX009 (ip), vehicle: saline) 130 % of control; under setting [1], 127 % of control. The survivor count was 1 of 8 under setting [1] and 3 of 8 under setting [2].
For `[O]=[Sn]([OH])[OH]`, the survivor count under setting [2] is given as 5 of 6.
On to `CCCCN(C)/N=N\c1[nH]ncc1C(N)=O`, for which the T/C (dose: 30.0 mg/kg/injection, schedule: Q01DX009 (ip), vehicle: saline with Tween-80) is 139 % of control; the T/C (dose: 32.5 mg/kg/injection, schedule: Q01DX009 (ip), vehicle: saline with Tween-80) was 131 % of control; the T/C (dose: 44.0 mg/kg/injection, schedule: Q01DX009 (ip), vehicle: saline with Tween-80) is 134 % of control; the T/C under setting [3] was 140 % of control.
As for `CC(C)N(Cl)S(C)(=O)=O`, the survivor count was 1 of 3 under setting [4] and 0 of 3 under setting [5].
Turning to `CCN(CC)CCNc1ccccc1[N+](=O)[O-]`, the survivor count (dose: 300.0 mg/kg/injection, schedule: Q04DX003 (ip), vehicle: acid diluted with saline) is 1 of 6.
Turning to `CCN(CC)CCNc1ncnc2c1cnn2-c1ccc(Cl)cc1`, under setting [6], the survivor count is on record as 1 of 6.
For `COc1cc2c(cc1[N+](=O)[O-])-c1ccc([N+](=O)[O-])cc1/C2=N/NC(N)=S`, the survivor count is, setting by setting: (dose: 150.0 mg/kg/injection, schedule: Q01DX001 (ip), vehicle: carboxymethylcellulose (CMC)) 0 of 6; (dose: 300.0 mg/kg/injection, schedule: Q01DX001 (ip), vehicle: carboxymethylcellulose (CMC)) 0 of 6.
As to `OCC1=CCC2c3[nH]c4ccccc4c3CCN2C1` (stereo not given), the survivor count under setting [7] is given as 2 of 6.
In the case of `Cc1cnc(C#N)c(-n2ccnc2)n1`, the survivor count (dose: 300.0 mg/kg/injection, schedule: Q01DX009 (ip), vehicle: water) is 0 of 6 and the survivor count (dose: 400.0 mg/kg/injection, schedule: Q04DX003 (ip), vehicle: water) is recorded as 3 of 6.
For the molecule `CNC1CC(N)C(O)C(OC2OC(CO)C(O)C3OC4(OC(C(N)CO)C(O)C(O)C4O)OC23)C1O` (stereo not given), the survivor count is 0 of 6 (dose: 7.6 mg/kg/injection, schedule: Q01DX Z (ip), vehicle: saline); 0 of 6 (dose: 11.0 mg/kg/injection, schedule: Q01DX Z (ip), vehicle: saline); 0 of 6 (dose: 17.0 mg/kg/injection, schedule: Q01DX Z (ip), vehicle: saline); 0 of 6 (dose: 25.0 mg/kg/injection, schedule: Q01DX Z (ip), vehicle: saline); 0 of 6 (dose: 50.0 mg/kg/injection, schedule: Q01DX Z (ip), vehicle: saline); 0 of 6 (dose: 100.0 mg/kg/injection, schedule: Q01DX Z (ip), vehicle: saline). For the same molecule, the survivor count (dose: 200.0 mg/kg/injection, schedule: Q01DX Z (ip), vehicle: saline) is listed as 0 of 6.
Take `CCOC(=O)NCC(CCN(C)C)(CN(C)C)c1cccc2ccccc12` (stereo not given): the survivor count (dose: 200.0 mg/kg/injection, schedule: Q04DX002 (ip), vehicle: Klucel (hydroxypropylcellulose) (HPC)) is reported as 0 of 3.
With `Cc1cc(O)cc(=O)[nH]1`, the survivor count (dose: 400.0 mg/kg/injection, schedule: Q01DX001 (ip), vehicle: saline) is given as 1 of 4.
With `Cc1c2ccncc2c(C)c2c1[nH]c1ccc(Cl)cc12`, the survivor count under setting [7] is 6 of 6.
On to `COc1cc(C=O)ccc1OC(=O)Nc1cc(C)ccc1C`, for which the survivor count is, setting by setting: (dose: 100.0 mg/kg/injection, schedule: Q01DX001 (ip), vehicle: saline with Tween-80) 6 of 6; under setting [8], 3 of 3; under setting [9], 4 of 6 and 3 of 3; (dose: 400.0 mg/kg/injection, schedule: Q01DX001 (ip), vehicle: saline with Tween-80) 0 of 6; under setting [6], 0 of 3 and 0 of 6. In addition, the T/C under setting [8] is 87 [4 of 6 alive], 92, 107 % of control.
For the molecule `Clc1ccc(SCN2CCCCC2)cc1`, the survivor count is, setting by setting: (dose: 200.0 mg/kg/injection, schedule: Q04DX003 (ip), vehicle: Klucel (hydroxypropylcellulose) (HPC)) 2 of 6; (dose: 400.0 mg/kg/injection, schedule: Q04DX003 (ip), vehicle: Klucel (hydroxypropylcellulose) (HPC)) 0 of 6.
Take `Cn1cnc([N+](=O)[O-])c1[Se]c1ncnc2nc[nH]c12`: the survivor count reads like this: (dose: 25.0 mg/kg/injection, schedule: Q01DX005 (ip), vehicle: other) 6 of 6; (dose: 100.0 mg/kg/injection, schedule: Q01DX005 (ip), vehicle: other) 0 of 6; (dose: 200.0 mg/kg/injection, schedule: Q01DX005 (ip), vehicle: other) 0 of 6.
As for `CCOc1cc(C=Nc2cc(Cl)c(O)c(Cl)c2)ccc1N(CCCl)CCCl`, the T/C was 127 % of control (dose: 10.0 mg/kg/injection, schedule: Q01DX009 (ip), vehicle: carboxymethylcellulose (CMC)); 129 and 133 % of control (dose: 20.0 mg/kg/injection, schedule: Q01DX009 (ip), vehicle: carboxymethylcellulose (CMC)); 127 % of control (dose: 20.0 mg/kg/injection, schedule: Q01DX009 (ip), vehicle: saline); 147 % of control (dose: 30.0 mg/kg/injection, schedule: Q01DX009 (ip), vehicle: carboxymethylcellulose (CMC)); 127 % of control (dose: 44.0 mg/kg/injection, schedule: Q01DX001 (ip), vehicle: carboxymethylcellulose (CMC)); 134 % of control (dose: 66.0 mg/kg/injection, schedule: Q01DX001 (ip), vehicle: carboxymethylcellulose (CMC), evaluated on day 30). Besides, the T/C (dose: 66.0 mg/kg/injection, schedule: Q01DX001 (ip), vehicle: carboxymethylcellulose (CMC), run until all animals had died) was 132 % of control; the T/C (dose: 100.0 mg/kg/injection, schedule: Q01DX001 (ip), vehicle: carboxymethylcellulose (CMC), evaluated on day 30) was 138 % of control; the T/C (dose: 100.0 mg/kg/injection, schedule: Q01DX001 (ip), vehicle: carboxymethylcellulose (CMC), run until all animals had died) is 135 % of control; the T/C (dose: 100.0 mg/kg/injection, schedule: Q01DX001 (ip), vehicle: saline) was 136 % of control [5 of 6 alive]; the T/C (dose: 150.0 mg/kg/injection, schedule: Q01DX001 (ip), vehicle: carboxymethylcellulose (CMC), evaluated on day 30) is 139 % of control; the T/C (dose: 150.0 mg/kg/injection, schedule: Q01DX001 (ip), vehicle: carboxymethylcellulose (CMC), run until all animals had died) was 135 % of control. In addition, the survivor count was 5 of 6 (dose: 40.0 mg/kg/injection, schedule: Q01DX009 (ip), vehicle: saline); 2 of 6 (dose: 66.0 mg/kg/injection, schedule: Q01DX009 (ip), vehicle: other); 0 of 6 under setting [3]; 0 of 6 (dose: 150.0 mg/kg/injection, schedule: Q01DX009 (ip), vehicle: other); 0 of 4 (dose: 200.0 mg/kg/injection, schedule: Q01DX001 (ip), vehicle: carboxymethylcellulose (CMC)); 0 of 6 (dose: 200.0 mg/kg/injection, schedule: Q01DX001 (ip), vehicle: saline). The survivor count (dose: 400.0 mg/kg/injection, schedule: Q01DX001 (ip), vehicle: carboxymethylcellulose (CMC)) is reported as 0 of 4.
As for `CCCCn1nnc2c(NCCc3cnc[nH]3)nc(N)nc21`, the survivor count by setting is: under setting [9], 3 of 6; under setting [7], 5 of 6.
Turning to `COC1CN(C(C)(C)C)C1`, the survivor count was 0 of 6 under setting [4] and 0 of 6 under setting [5].
